In article PMC5006017:
No constants are given. Whether binding was seen depends on the method and setting. Binding seen in cells or lysates may run through a third protein. Some binding calls cover weakened binding; strength is not graded here.

By UniProt entry, the sequences of proteins in these tests, tags left out.
UniProt P03101: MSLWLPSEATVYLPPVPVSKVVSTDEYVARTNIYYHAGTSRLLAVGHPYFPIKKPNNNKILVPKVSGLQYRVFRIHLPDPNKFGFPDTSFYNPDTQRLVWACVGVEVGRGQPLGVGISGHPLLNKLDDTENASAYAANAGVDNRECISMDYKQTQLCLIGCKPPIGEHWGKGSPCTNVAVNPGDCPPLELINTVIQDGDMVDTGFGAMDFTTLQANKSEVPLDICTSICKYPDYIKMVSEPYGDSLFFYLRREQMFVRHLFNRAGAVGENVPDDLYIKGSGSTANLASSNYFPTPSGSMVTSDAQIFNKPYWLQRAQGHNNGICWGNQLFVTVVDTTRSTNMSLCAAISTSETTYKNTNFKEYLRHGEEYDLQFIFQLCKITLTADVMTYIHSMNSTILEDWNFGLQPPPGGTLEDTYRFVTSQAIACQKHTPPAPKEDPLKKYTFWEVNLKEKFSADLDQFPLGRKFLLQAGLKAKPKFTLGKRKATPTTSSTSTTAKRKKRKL
UniProt P08962: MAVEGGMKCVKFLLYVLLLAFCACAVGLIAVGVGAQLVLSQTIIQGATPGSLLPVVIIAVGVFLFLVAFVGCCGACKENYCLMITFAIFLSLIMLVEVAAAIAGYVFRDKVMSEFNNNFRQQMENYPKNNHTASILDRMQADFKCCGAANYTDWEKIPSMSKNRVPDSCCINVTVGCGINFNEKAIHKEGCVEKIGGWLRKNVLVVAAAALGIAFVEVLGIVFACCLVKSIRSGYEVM

Target: HPV16 major capsid protein L1 (in HPV16 pseudovirions) (human papillomavirus type 16) (UniProt P03101)
Assay: co-IP; HeLa cells infected with HPV16 PsV for five hours, lysed in 1% Chaps/Hepes buffer; L1 pAb K75 on anti-rabbit Dynabeads, overnight at 4 °C; Western blot for L1 and CD63

Substance: tetraspanin CD63 (endogenous, HeLa) (from UniProt P08962 1-238)
- binding: binds
